Source: patent publication US20230416248A1, “COMPOUNDS AND USES THEREOF” (Foghorn Therapeutics Inc., priority 2020, published 2023)

The chains behind the UniProt entries cited, without tags or fusion partners.
UniProt P51532, whole entry: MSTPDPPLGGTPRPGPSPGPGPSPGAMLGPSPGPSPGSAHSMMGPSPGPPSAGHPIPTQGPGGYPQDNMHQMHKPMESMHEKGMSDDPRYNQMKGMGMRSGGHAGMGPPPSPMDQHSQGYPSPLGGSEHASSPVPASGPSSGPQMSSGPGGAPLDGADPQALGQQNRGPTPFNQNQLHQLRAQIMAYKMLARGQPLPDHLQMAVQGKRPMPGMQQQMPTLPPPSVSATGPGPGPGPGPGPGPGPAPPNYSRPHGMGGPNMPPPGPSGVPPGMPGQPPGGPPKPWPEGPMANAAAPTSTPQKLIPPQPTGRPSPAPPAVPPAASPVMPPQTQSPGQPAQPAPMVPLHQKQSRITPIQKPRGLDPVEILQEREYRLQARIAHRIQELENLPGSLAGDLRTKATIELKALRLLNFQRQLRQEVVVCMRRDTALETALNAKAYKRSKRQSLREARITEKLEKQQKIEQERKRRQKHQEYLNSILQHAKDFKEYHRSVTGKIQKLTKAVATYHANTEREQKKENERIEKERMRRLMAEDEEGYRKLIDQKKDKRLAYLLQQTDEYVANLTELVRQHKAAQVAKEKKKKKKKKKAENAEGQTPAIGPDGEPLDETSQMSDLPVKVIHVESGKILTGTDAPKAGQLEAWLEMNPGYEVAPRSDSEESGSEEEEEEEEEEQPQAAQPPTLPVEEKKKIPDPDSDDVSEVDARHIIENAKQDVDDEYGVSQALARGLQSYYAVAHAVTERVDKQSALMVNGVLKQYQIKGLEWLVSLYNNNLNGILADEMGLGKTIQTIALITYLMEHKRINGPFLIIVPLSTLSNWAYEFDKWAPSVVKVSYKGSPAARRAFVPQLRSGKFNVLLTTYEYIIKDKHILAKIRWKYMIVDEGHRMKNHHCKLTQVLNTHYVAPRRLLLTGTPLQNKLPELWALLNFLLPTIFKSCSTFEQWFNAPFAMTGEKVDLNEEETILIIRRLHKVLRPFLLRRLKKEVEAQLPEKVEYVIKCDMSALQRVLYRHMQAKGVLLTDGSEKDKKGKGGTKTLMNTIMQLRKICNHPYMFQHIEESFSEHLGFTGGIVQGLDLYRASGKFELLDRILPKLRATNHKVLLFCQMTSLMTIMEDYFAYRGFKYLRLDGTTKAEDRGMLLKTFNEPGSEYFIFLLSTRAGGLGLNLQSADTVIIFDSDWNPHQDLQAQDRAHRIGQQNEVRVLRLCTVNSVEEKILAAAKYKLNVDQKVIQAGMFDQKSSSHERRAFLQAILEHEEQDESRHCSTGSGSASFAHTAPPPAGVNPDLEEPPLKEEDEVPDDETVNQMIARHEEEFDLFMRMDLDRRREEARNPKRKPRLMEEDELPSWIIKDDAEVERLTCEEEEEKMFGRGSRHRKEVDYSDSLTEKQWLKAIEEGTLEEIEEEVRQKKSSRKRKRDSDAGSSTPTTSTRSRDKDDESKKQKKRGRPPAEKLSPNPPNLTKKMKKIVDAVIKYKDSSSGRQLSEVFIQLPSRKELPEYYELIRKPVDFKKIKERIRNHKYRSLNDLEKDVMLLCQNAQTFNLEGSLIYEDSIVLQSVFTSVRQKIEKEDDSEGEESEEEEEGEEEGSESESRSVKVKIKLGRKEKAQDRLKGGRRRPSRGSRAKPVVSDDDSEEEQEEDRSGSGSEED
UniProt P51531, whole entry: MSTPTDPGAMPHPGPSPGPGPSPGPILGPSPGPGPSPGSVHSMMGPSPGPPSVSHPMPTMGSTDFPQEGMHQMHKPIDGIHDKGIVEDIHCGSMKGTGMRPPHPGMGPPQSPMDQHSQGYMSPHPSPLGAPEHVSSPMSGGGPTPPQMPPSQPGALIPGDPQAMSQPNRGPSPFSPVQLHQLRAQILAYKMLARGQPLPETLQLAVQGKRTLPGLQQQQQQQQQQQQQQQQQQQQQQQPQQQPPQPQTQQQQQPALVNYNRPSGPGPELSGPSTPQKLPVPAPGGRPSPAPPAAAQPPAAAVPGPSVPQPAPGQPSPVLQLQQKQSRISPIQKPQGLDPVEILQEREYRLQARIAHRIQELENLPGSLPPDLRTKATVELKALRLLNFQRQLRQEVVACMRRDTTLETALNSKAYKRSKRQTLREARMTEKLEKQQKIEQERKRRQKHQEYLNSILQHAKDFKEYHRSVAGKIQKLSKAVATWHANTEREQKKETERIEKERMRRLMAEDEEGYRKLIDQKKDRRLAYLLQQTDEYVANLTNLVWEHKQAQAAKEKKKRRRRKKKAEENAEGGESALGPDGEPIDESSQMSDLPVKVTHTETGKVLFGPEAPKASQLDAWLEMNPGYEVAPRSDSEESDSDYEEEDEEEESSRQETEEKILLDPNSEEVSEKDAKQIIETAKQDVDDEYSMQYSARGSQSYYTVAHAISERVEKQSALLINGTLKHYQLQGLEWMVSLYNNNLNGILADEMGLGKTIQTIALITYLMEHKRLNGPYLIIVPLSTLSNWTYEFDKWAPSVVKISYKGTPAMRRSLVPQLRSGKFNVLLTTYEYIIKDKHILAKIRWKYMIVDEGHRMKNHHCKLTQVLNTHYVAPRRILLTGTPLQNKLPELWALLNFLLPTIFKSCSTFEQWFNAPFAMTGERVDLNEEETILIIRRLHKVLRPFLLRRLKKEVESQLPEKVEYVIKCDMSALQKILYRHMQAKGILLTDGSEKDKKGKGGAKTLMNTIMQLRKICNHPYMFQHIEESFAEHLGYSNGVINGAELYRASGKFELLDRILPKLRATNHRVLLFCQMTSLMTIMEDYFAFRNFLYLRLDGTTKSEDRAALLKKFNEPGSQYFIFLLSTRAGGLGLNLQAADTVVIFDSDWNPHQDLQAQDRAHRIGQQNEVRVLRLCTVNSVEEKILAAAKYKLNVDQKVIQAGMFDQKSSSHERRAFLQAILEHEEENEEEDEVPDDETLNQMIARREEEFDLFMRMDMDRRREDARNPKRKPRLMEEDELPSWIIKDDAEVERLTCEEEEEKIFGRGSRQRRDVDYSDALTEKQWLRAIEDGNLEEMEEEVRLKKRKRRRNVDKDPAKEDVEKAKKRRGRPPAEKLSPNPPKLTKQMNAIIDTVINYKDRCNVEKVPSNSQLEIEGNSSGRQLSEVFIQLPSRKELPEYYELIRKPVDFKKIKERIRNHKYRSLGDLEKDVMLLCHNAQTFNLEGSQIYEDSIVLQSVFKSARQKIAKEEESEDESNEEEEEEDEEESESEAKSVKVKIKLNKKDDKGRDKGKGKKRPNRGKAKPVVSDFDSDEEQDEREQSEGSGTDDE

How the values were obtained:
[1] = target: BRG-1 (Homo sapiens, UniProt P51532); assay: ATPase catalytic activity of BRG-1, ADP-Glo in vitro biochemical assay; conditions: read-out: BRG1 IC50, 30 nM BRG-1, 400 μM ATP
[2] = target: BRM (Homo sapiens, UniProt P51531); assay: ATPase catalytic activity of BRM, ADP-Glo in vitro biochemical assay; conditions: for IC50: read-out: BRM IC50, ADP-Glo ATPase assay, 30 nM BRM, 400 μM ATP; for Ratio* (BRG1 IC50 (μM) divided by BRM IC50 (μM)): selectivity ratio BRG1 IC50 / BRM IC50

SMILES	IC50 [1]	IC50 [2]	Ratio* (BRG1 IC50 (μM) divided by BRM IC50 (μM)) [2]
O=C(NCc1cc2nc(-c3ccccc3)ccc2cn1)c1ccc2c(c1)S(=O)(=O)CCOC2	1690 nM	267 nM	6.32
O=C(NCc1cc2nc(-c3cccc(N4CCC4)c3)ccc2cn1)c1cnc2c(c1)S(=O)(=O)CCOC2	1060 nM	101 nM	10.44
CN1CCOc2c(-c3ccc4cnc(CNC(=O)c5ccc6c(c5)S(=O)(=O)CCOC6)cc4n3)cccc21	461 nM	50.4 nM	9.15

Now those with a lower IC50 [1], led by results:

IC50 [1]	IC50 [2]	Ratio* (BRG1 IC50 (μM) divided by BRM IC50 (μM)) [2]	SMILES
20.7 nM	4 nM	5.17	C[C@@H]1CN(c2cccc(-c3ccc4cnc(CNC(=O)c5ccc6c(c5)S(=O)(=O)COCC6)cc4n3)n2)C[C@H](C)O1
34.5 nM	9 nM	3.83	C[C@@H]1CN(c2cccc(-c3ccc4cnc(CNC(=O)c5cc(F)c6c(c5)S(=O)(=O)[C@@H](C)COC6)cc4n3)n2)C[C@H](C)O1
262 nM	35.4 nM	7.38	CN1CCOc2ccc(-c3ccc4cnc(CNC(=O)c5ccc6c(c5)S(=O)(=O)CCOC6)cc4n3)cc21

The structures given here were assigned with low confidence; some may be wrong.
